Laboratory results taken from paper PMC4232348.
These are yes or no findings as the source states them, for the method shown. Binding seen in cells or lysates may run through a third protein. Binding can be weak; no strength is given.

Molecular target: GFP-CG4996 (Drosophila melanogaster) (UniProt A1ZAY8)
Assay: co-IP; GFP-Trap (ChromoTek) precipitation from extracts of cotransfected S2 cells; anti-myc immunoblot; inputs 10%

Substance	binding
CG3338-Myc (Vps53) (from UniProt Q9VQY8)	binds
CG7371-Myc (Vps52) (from UniProt Q9VMQ8)	binds
